The text below walks through data of publication PMC10987111 (Advanced Science, 2024).

The nature of the series: general procedure: solution-phase peptide synthesis; EDC·HCl, HOBT, DIPEA.

As for “1-(((S)-7-benzyl-20-(2,5-dioxo-2,5-dihydro-1H-pyrrol-1-yl)-3,6,9,12,15-pentaoxo-2,5,8,11,14-pentaazaicosyl)oxy)-N-((1S,9S)-9-ethyl-5-fluoro-9-hydroxy-4-methyl-10,13-dioxo-2,3,9,10,13,15-hexahydro-1H,12H-benzo[de]pyrano[3',4':6,7]indolizino[1,2-b]quinolin-1-yl)cyclobutane-1-carboxamide”, where the note is “conjugation step”, the conjugation yield came to 31.8%.

Regarding “benzyl (S)-1-((11-benzyl-3,6,9,12,15-pentaoxo-1-phenyl-2-oxa-4,7,10,13,16-pentaazaheptadecan-17-yl)oxy)cyclobutane-1-carboxylate”, where the note is “coupling step”, the step yield was found to be 34.2%.
